Measurements: article doi:10.1101/2025.10.26.684595
No constants are given. Whether binding was seen depends on the method and setting. For some assays here: In cells and extracts the contact can be indirect. Some binding calls cover weakened binding; strength is not graded here. Where a sequence is shown, tags or fusion partners need not be part of it. Blank lines part the entries; values can stand above or below the binder they belong to.

By UniProt entry, the sequences of proteins in these tests, tags left out.
UniProt P23769: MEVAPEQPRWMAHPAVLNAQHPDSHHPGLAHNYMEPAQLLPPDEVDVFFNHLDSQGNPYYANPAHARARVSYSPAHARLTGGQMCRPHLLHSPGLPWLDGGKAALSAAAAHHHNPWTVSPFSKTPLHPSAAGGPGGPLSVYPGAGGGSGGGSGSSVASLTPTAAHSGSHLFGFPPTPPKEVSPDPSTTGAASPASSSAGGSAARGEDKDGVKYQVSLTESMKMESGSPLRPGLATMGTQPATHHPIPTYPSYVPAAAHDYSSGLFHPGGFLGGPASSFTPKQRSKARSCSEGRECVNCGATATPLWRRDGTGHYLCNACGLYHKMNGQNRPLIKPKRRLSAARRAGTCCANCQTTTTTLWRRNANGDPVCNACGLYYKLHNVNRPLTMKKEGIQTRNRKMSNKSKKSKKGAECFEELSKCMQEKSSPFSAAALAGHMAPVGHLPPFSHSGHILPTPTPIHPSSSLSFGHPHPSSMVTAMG
UniProt Q92508: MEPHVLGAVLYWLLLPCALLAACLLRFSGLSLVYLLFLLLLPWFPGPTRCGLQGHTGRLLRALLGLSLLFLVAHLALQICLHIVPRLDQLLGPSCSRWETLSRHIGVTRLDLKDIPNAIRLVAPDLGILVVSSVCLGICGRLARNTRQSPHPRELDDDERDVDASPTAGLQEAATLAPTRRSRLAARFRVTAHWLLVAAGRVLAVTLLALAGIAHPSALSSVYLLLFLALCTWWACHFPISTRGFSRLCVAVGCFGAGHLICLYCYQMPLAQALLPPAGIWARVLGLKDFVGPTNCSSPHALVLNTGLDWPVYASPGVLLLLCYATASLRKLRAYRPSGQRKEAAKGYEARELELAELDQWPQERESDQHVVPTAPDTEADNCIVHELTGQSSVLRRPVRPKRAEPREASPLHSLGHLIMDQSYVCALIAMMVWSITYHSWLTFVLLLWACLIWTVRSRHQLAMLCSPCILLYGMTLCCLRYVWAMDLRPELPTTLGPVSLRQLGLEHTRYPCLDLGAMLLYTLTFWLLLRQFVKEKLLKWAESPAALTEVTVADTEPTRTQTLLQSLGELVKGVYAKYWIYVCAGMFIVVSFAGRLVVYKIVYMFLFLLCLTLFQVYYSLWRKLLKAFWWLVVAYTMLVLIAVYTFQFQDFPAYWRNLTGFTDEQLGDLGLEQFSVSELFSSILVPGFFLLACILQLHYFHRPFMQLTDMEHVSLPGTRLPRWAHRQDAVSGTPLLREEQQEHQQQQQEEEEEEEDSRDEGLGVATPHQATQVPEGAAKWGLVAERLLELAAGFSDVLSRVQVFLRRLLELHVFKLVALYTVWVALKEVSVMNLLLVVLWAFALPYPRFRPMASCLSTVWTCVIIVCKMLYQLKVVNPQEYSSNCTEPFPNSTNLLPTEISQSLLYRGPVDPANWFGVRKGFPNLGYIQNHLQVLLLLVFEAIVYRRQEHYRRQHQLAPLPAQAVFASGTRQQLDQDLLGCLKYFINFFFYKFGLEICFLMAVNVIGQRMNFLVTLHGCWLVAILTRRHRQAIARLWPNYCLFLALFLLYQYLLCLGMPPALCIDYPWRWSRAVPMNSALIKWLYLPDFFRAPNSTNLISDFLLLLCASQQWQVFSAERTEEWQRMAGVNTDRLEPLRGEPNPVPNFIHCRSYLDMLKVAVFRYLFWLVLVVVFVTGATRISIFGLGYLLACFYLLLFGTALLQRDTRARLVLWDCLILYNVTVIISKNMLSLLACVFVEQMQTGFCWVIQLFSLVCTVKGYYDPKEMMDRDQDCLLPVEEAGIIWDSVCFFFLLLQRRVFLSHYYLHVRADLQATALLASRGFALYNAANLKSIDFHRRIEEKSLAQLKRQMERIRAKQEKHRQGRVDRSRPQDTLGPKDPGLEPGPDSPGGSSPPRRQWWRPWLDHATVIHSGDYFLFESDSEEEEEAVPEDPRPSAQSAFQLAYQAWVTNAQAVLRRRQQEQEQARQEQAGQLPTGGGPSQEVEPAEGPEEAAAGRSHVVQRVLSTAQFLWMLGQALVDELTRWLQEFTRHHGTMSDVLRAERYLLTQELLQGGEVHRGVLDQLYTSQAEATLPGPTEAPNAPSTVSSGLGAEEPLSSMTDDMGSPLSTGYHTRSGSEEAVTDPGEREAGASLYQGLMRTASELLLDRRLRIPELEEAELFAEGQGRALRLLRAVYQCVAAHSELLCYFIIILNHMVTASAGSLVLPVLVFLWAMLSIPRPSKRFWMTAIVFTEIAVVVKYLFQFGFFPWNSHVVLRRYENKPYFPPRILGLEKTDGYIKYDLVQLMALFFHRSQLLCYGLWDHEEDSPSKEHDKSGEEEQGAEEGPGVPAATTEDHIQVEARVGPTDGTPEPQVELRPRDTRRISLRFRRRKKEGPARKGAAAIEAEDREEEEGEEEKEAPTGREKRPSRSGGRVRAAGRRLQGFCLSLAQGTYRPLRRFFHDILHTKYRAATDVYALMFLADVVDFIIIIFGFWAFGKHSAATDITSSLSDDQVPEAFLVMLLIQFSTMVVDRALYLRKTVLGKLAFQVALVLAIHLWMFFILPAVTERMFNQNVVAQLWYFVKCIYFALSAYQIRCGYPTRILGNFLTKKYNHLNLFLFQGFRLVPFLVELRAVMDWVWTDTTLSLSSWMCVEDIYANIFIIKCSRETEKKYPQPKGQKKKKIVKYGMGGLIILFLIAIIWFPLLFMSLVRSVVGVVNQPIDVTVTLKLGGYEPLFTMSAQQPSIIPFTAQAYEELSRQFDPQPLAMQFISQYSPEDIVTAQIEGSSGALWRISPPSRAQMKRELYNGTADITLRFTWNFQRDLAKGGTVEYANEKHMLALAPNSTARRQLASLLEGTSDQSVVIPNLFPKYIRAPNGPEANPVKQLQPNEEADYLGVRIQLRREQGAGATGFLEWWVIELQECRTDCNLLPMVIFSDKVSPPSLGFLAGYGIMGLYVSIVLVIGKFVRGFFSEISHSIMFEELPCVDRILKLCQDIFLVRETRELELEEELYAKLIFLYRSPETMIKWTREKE

What was measured:
GATA2 = GATA2 (UniProt P23769); test: co-IP
human PIEZO1 (human) [1] = target: human PIEZO1 (human) (UniProt Q92508); test: co-IP
human PIEZO1 (human) [2] = target: human PIEZO1 (human) (UniProt Q92508); test: native gel or EMSA

- binding (GATA2): binds
- binding (human PIEZO1 (human) [1]): binds
- binding (human PIEZO1 (human) [2]): binds
B1: human MDFIC2 with an N-terminal haemagluttinin (HA) tag (protein, UniProt A0A1B0GVS7 1-189)
chain: MSETELEKIKVRTAEHLENDKNNISWLKEDTQLTNAKHADEKPINAIVINSVSDFNITDGPAKENPNEKKLSESSTSLSSLEECQTTFSYLQTDTSVHHRDTDEECASLILACLFCQFWDCLLMLPGTCETVCTKMCCPSRRYHHTSDENHSRNDCSCNCDMDCSLFESCHETSECLELAMEISEICYR
modifications: palmitoylation on at least 2 cysteines (PEG-maleimide mass-tagging assay)

- binding (GATA2): binds
B2: MDFI (GATA2 co-immunoprecipitation) (protein, UniProt Q99750 1-246)
chain: MYQVSGQRPSGCDAPYGAPSAAPGPAQTLSLLPGLEVVTGSTHPAEAAPEEGSLEEAATPMPQGNGPGIPQGLDSTDLDVPTEAVTCQPQGNPLGCTPLLPNDSGHPSELGGTRRAGNGALGGPKAHRKLQTHPSLASQGSKKSKSSSKSTTSQIPLQAQEDCCVHCILSCLFCEFLTLCNIVLDCATCGSCSSEDSCLCCCCCGSGECADCDLPCDLDCGILDACCESADCLEICMECCGLCFSS

- binding (GATA2): binds
B3: MDFIC (GATA2 co-immunoprecipitation) (protein, UniProt Q9P1T7 1-246)
chain: MSGAGEALAPGPVGPQRVAEAGGGQLGSTAQGKCDKDNTEKDITQATNSHFTHGEMQDQSIWGNPSDGELIRTQPQRLPQLQTSAQVPSGEEIGKIKNGHTGLSNGNGIHHGAKHGSADNRKLSAPVSQKMHRKIQSSLSVNSDISKKSKVNAVFSQKTGSSPEDCCVHCILACLFCEFLTLCNIVLGQASCGICTSEACCCCCGDEMGDDCNCPCDMDCGIMDACCESSDCLEICMECCGICFPS
